{
  "source": "patent US7083802B2",
  "about": "“Treatment of ocular disease” (Advanced Ocular Systems Limited, priority 2003, dated 2006)",
  "test": "Intraocular administration, ocular toxicity",
  "type": "in vivo",
  "conditions": "no experiment described",
  "note": "Some results were stated once for a whole list of compounds, not compound by compound.",
  "data": [
    {"smiles": "CO[C@H]1C[C@@H]2CC[C@@H](C)[C@@](O)(O2)C(=O)C(=O)N2CCCC[C@H]2C(=O)O[C@H]([C@H](C)C[C@@H]2CC[C@@H](O)[C@H](OC)C2)CC(=O)[C@H](C)/C=C(\\C)[C@@H](O)[C@@H](OC)C(=O)[C@H](C)C[C@H](C)/C=C/C=C/C=C/1C", "note": "[rapamycin]", "values": [
      {"measurement": "Intraocular dose that does not result in substantial toxicity", "value": "up to 200 μg"}
    ]}
  ]
}
